From PubChem BioAssay AID504444 (National Center for Advancing Translational Sciences (NCATS), 2011)
Hit rate of the full screen: of about 360,000 compounds, about 7,500 (2.1%) were called active. This list was built around the results that the source calls inconclusive (neither active nor inactive); the mix of calls is not that of the screen. Calls follow the shape of the dose curve; as a rule, active = well fitted inhibition curve with a large enough effect; inconclusive = small, poorly fitted or top-dose-only effect, or effect the other way; inactive = flat fitted curve, though single readings scatter. Potencies of inconclusive entries are doubtful fits and often do not repeat.
Potency is read from the fitted curve at half-maximal effect.

Experiment: Nrf2 qHTS screen for inhibitors; also: nearly all actives have a fitted effect of over 60% in size
Conditions: A549 ARE-Fluc reporter, luciferase luminescence, 18-24 h; series mostly up to 46 µM
Outline: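 Nrf2 activity is the BugLite luminescence, read 15 min after reagent at room temperature, following CellTiter-Fluor cytotoxicity readout (30 min, 37C). Compound titrations were applied for 18-24 h to 5000 A549 ARE_Fluc cells/well in 5% FBS OPTI-MEM.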
With `CC(=O)Nc1ccc(NC(=O)C2CCCN2S(=O)(=O)c2ccc3c(c2)CCCC(=O)N3)cc1` (centres undefined) the Potency was inconclusive: 14.6 µM [activator, partial curve, poor fit].
For `Cc1ccc(-c2cc(C(=O)Nc3cc(C)on3)c3ccccc3n2)cc1`, the Potency was “inactive”.
In the case of `N=C(N)SCc1nc2ccccc2c(=O)n1-c1ccccc1Cl`, the Potency was inconclusive: 20.6 µM [activator, single point].
With `Cc1ccccc1/C=N\NC(=O)c1ccc(Cn2cccn2)o1` the Potency was inconclusive: 7.31 µM [activator, partial curve, poor fit].
For `CCS(=O)(=O)N1CCC(c2nc(-c3ccc(C(F)(F)F)cc3)no2)CC1`, the Potency was inconclusive: 14.6 µM [falling, partial curve].
In the case of `COc1cccc(-n2cc(-c3ccc(F)cc3)[nH]c2=S)c1`, the Potency was inconclusive: 0.731 µM [activator, full curve].
With `COc1ccc(-c2noc(CCCC(=O)N3CCN(c4cc(C)ccc4C)CC3)n2)cc1` the Potency was inconclusive: 23.1 µM [falling, single point].
With `Cn1c2ccccc2c(=O)c2cc(NCCCN3CCOCC3)ccc21` the Potency was inconclusive: 4.11 µM [activator, partial curve, poor fit].
For `COc1ccc(OC)c(S(=O)(=O)N/N=C\c2ccc3c(c2)OCO3)c1`, the Potency was inconclusive: 7.31 µM [activator, partial curve].
With `CCC(=O)C1CCCN(C(=O)c2ccc3nc(-c4cccc(OC)c4)oc3c2)C1` (centres undefined) the Potency was inconclusive: 0.651 µM [activator, full curve].
For `CCNc1nc(C#N)nc(Nc2ccccc2)n1`, the Potency was “inactive”.
With `Cc1ccnc(NC(=O)C2CC(=O)N(c3ccc4c(c3)OCCO4)C2)c1` (centres undefined) the Potency was inconclusive: 1.84 µM [activator, full curve].
With `CC1CCN(S(=O)(=O)c2ccc3c(c2)C(=NO)c2cc(S(=O)(=O)N4CCC(C)CC4)ccc2-3)CC1` the Potency was active: 4.11 µM.
For `COc1ccccc1OC(=O)c1ccc(SC)cc1OC`, the Potency was “inactive”.
With `CCOC(=O)c1cnn(-c2nc(SC)nc3sc4c(c23)CCCC4)c1N` the Potency was inconclusive: 16.4 µM [falling, partial curve, poor fit].
With `CCCC(=O)n1nc(-c2ccco2)nc1NCc1ccccc1Cl` the Potency was “inactive”.
With `O=C(Nc1nnc(S(=O)(=O)N2CCOCC2)s1)c1ccccc1Cl` the Potency was inconclusive: 1.64 µM [activator, full curve].
In the case of `CCC(=O)N1CCc2cc(S(=O)(=O)NC(C(=O)NC(C)c3ccccc3)C(C)C)ccc21` (centres undefined), the Potency was inconclusive: 13 µM [activator, partial curve, poor fit].
For `O=C(Nc1ccc(N2CCN(C(=O)c3cccs3)CC2)c(Cl)c1)c1cccnc1`, the Potency was inconclusive: 20.6 µM [falling, single point].
In the case of `CC(C)C[C@H](NC(=O)c1nc[nH]c1C(=O)NCCCCCNC(=O)OC(C)(C)C)C(=O)OC(C)(C)C`, the Potency was inconclusive: 29.1 µM [falling, single point].
In the case of `CCN(CC)S(=O)(=O)c1ccc2c(c1)nc(CCC(=O)Nc1cccc(C(F)(F)F)c1)n2CC`, the Potency was inconclusive: 16.4 µM [falling, single point].
In the case of `O=C(Nc1cccnc1)c1ccc(Br)c(S(=O)(=O)N2CCCC2)c1`, the Potency was inconclusive: 29.1 µM [falling, single point].
For `COc1cccc(-c2nn(-c3ccc(C)cc3)cc2C(=O)N(C)CC(=O)Nc2cccc(F)c2)c1`, the Potency was inconclusive: 29.1 µM [falling, single point].
For `O=C(CNC(=S)N(Cc1ccccc1)Cc1cccnc1)NCc1ccccc1`, the Potency was inconclusive: 8.2 µM [falling, partial curve].
In the case of `CC(=O)N1CCN(S(=O)(=O)c2cccc(C(=O)Nc3nc4c(s3)CCCC4)c2)CC1`, the Potency was inconclusive: 14.6 µM [falling, single point].
With `Cn1c(N=NC(=O)c2ccccc2)c(O)c2ccccc21` the Potency was inconclusive: 2.31 µM [activator, partial curve].
In the case of `COc1cccc(-c2noc(-c3cccnc3)n2)c1`, the Potency was inconclusive: 2.59 µM [activator, full curve].
For `O=C(Oc1c(-c2ccco2)oc2ccccc2c1=O)c1cccnc1`, the Potency was inconclusive: 5.17 µM [activator, full curve].
With `CC(=O)Nc1ccc(S(=O)(=O)Oc2ccc(C(=S)N3CCC(O)CC3)cc2)cc1` the Potency was inconclusive: 20.6 µM [falling, single point].
For `Cc1cc(C)nc(-n2nc(C)cc2NC(=O)c2ccc(F)cc2F)n1`, the Potency was inconclusive: 32.6 µM [falling, partial curve, poor fit].
With `COc1cc(Cl)c(C)cc1NC(=O)c1ccc2c(SCC(=O)O)c3c(nc2c1)CCCC3` the Potency was “inactive”.
In the case of `CC(C)(C)c1ccc(OCC(=O)O/N=C(\N)c2ccncc2)cc1`, the Potency was inconclusive: 29.1 µM [falling, single point].
For `CCCC(=O)Nc1ccc(Cl)c(NC(=O)c2cccc(OC)c2)c1`, the Potency was inconclusive: 18.4 µM [falling, single point].
For `COc1ccc(CN=C(C)c2c(C(F)(F)F)[nH]n(-c3nc4ccccc4s3)c2=O)cc1`, the Potency was inconclusive: 32.6 µM [falling, single point].
In the case of `Cc1cccc(NC(=O)c2cc(-c3ccc(C)s3)nc3ccccc23)n1`, the Potency was “inactive”.
For `COCCCNc1nc2cc(OC)c(OC)cc2c2nc(-c3ccccc3)nn12`, the Potency was inconclusive: 25.9 µM [falling, partial curve, poor fit].
For `Cc1ccc(NC(=S)Nc2cccc3cnccc23)cc1C`, the Potency was inconclusive: 25.9 µM [falling, partial curve, poor fit].
With `CC(=O)Oc1ccc(C)cc1-n1nc2ccccc2n1` the Potency was inconclusive: 13 µM [activator, partial curve, poor fit].
For `S=c1[nH]nc(-c2ccc3ncccc3c2)n1-c1ccc2c(c1)OCCO2`, the Potency was inconclusive: 20.6 µM [falling, single point].
In the case of `O=C(NC1CCCC1)C(c1ccc(F)cc1)N(Cc1ccc(F)cc1)C(=O)CCl` (centres undefined), the Potency was “inactive”.
In the case of `CC(=O)Nc1ccc(NC(=O)C2CCN(c3c(Cc4ccccc4)c(C)nc4ncnn34)CC2)cc1`, the Potency was “inactive”.
In the case of `Cc1cccc(NC(=O)C2CCN(S(=O)(=O)c3c(C)noc3/C=C/c3ccco3)CC2)n1`, the Potency was inconclusive: 20.6 µM [falling, partial curve, poor fit].
In the case of `CCN(CC)S(=O)(=O)c1ccc(N/N=C/c2cc(OC)ccc2O)nc1`, the Potency was “inactive”.
With `O=C1c2ccccc2S(=O)(=O)N1Cc1nc2ccccc2s1` the Potency was active: 13 µM.
With `Cc1cccc(N(Cc2ccccc2)C(=O)c2ccccc2F)c1` the Potency was inconclusive: 16.4 µM [activator, single point].
In the case of `Cc1ccc(-c2noc(CSc3nnc(-c4ccncc4)n3-c3ccc(F)cc3)n2)cc1`, the Potency was inconclusive: 18.4 µM [falling, partial curve, poor fit].
With `N#Cc1c2c(c(NCCCN3CCOCC3)n3c1nc1ccccc13)CCC2` the Potency was “inactive”.
With `O=C(CSc1nc2ccccc2c(=O)n1-c1cccc(C(F)(F)F)c1)NC1CC1` the Potency was inconclusive: 6.51 µM [falling, single point].
For `C=CCNC(=S)N/N=C/c1ccc(C)cc1C`, the Potency was active: 18.4 µM.
With `Nc1c(C(=O)c2cccs2)sc2nsc(SCCN3CCCCC3)c12` the Potency was inconclusive: 8.2 µM [activator, partial curve].
In the case of `O=c1c(Cc2ccc(F)cc2)c(O)ccn1C1CCCCC1`, the Potency was inconclusive: 0.0058 µM [activator, full curve, poor fit].
With `Cc1cccnc1NC(=O)c1cccc(S(=O)(=O)N2CCN(c3ccccc3)CC2)c1` the Potency was inconclusive: 25.9 µM [falling, partial curve].
For `Cc1cc(=O)c2c(o1)C(=O)c1occc1C2=O`, the Potency was inconclusive: 3.66 µM [falling, partial curve, poor fit].
For `O=C(CC1SC(=Nc2ccccc2)N(CCc2c[nH]c3ccccc23)C1=O)Nc1ccccc1F` (centres undefined), the Potency was inconclusive: 20.6 µM [falling, single point].
In the case of `Cc1cc(C(=O)N/N=C2\CCCC(=O)C2)c(C)n1-c1ccccc1`, the Potency was inconclusive: 23.1 µM [activator, single point].
In the case of `COc1ccc(-c2nc3cc(C(C)C)ccc3o2)cc1NC(=O)COc1ccc(C)cc1C`, the Potency was inconclusive: 4.11 µM [activator, full curve, poor fit].
In the case of `CCOC(=O)c1sc(NC(=O)CSc2nnnn2-c2ccccc2)nc1C`, the Potency was inconclusive: 18.4 µM [falling, single point].
With `Nc1nnc(SCc2cn3cc(Cl)ccc3n2)s1` the Potency was inconclusive: 1.84 µM [activator, full curve].
For `c1ccc(Nc2nnc(-c3cccnc3)s2)cc1`, the Potency was inconclusive: 7.31 µM [activator, partial curve].
With `COC(=O)c1sc(NC(=O)c2oc3ccccc3c2C)nc1C` the Potency was inconclusive: 2.31 µM [activator, full curve].
For `COc1ccc(C(=O)CN2C(=O)c3ccccc3C2=O)c(OC)c1`, the Potency was inconclusive: 23.1 µM [activator, partial curve].
In the case of `O=C(Cn1c(=O)c2ccccc2n(CC(=O)Nc2ccc(F)cc2F)c1=O)NCCc1ccccc1`, the Potency was inconclusive: 2.31 µM [activator, partial curve, poor fit].
With `Cc1ccc(C(=O)O/N=C(\N)c2ccc(Br)cc2)cc1C` the Potency was inconclusive: 9.2 µM [activator, partial curve].
With `O=C(Nc1ccccc1CC[N+](=O)[O-])N1CCN(c2ccccc2)CC1` the Potency was inconclusive: 32.6 µM [falling, single point].
